Taken from: PubChem BioAssay AID1259283 (Sanger Institute, 2017)

Purpose: 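Kinases whose silencing adds to targeted drugs in killing colon cancer cells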 (primary screen)
System: HT115 colorectal cancer cells
Reagents: siRNA pool against human genes
Challenge: anchor drug given one day after siRNA: BYL719 at 1 µM, cetuximab at 5 µg/ml, trametinib at 10 nM, or DMSO vehicle alone
Measured: 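Viability normalised to non-targeting pool #2 wells and averaged over replicates, robust z-score against control wells, and a synergy score for each of three drugs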
Reading the numbers: robust z-score, knock-down alone: higher = more viable cells after knock-down; viability, DMSO vs non-targeting control: higher = more viable cells
Units: viability, DMSO vs non-targeting control in fraction of control
Active means: 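a gene counts as essential when its robust z-score with knock-down alone is below -3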
Meaning of the calls: active = essential (z below -3, no drug); inactive = no change without drug
Here is one part, drawn at random, of 794 reagents tested. 14 of all reagents (1.8%) count as active. 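Calls reflect only viability loss without drug; drug synergy does not enter the call.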 No viability above 1 is reported: the scale is capped. Not all columns of the deposit are shown. Not stated in the record: the amount of reagent, the time to read-out.

The opening 2 entries, ahead of the listing:
MAPK10 (mitogen-activated protein kinase 10): robust z-score, knock-down alone = 0.789; viability, DMSO vs non-targeting control = 1; call = inactive
SMC1A (structural maintenance of chromosomes 1A): robust z-score, knock-down alone = -1.4; viability, DMSO vs non-targeting control = 0.798; call = inactive

The listing, from the start:
MAPK10 (mitogen-activated protein kinase 10): robust z-score, knock-down alone = 0.789; viability, DMSO vs non-targeting control = 1; call = inactive
SMC1A (structural maintenance of chromosomes 1A): robust z-score, knock-down alone = -1.4; viability, DMSO vs non-targeting control = 0.798; call = inactive
PIK3C2B: robust z-score, knock-down alone = 0.789; viability, DMSO vs non-targeting control = 1; call = inactive
TWF1 (twinfilin actin binding protein 1): robust z-score, knock-down alone = -0.983; viability, DMSO vs non-targeting control = 0.836; call = inactive
CKS2 (CDC28 protein kinase regulatory subunit 2): robust z-score, knock-down alone = 0.278; viability, DMSO vs non-targeting control = 0.953; call = inactive
DDR2 (discoidin domain receptor tyrosine kinase 2): robust z-score, knock-down alone = 0.78; viability, DMSO vs non-targeting control = 0.999; call = inactive
SYNCRIP (synaptotagmin binding cytoplasmic RNA interacting protein): robust z-score, knock-down alone = -1.75; viability, DMSO vs non-targeting control = 0.765; call = inactive
FER (FER tyrosine kinase): robust z-score, knock-down alone = 0.744; viability, DMSO vs non-targeting control = 0.996; call = inactive
ITK (IL2 inducible T cell kinase): robust z-score, knock-down alone = 0.384; viability, DMSO vs non-targeting control = 0.963; call = inactive
DAPK1 (death associated protein kinase 1): robust z-score, knock-down alone = 0.0766; viability, DMSO vs non-targeting control = 0.934; call = inactive
SPEG (striated muscle enriched protein kinase): robust z-score, knock-down alone = 0.789; viability, DMSO vs non-targeting control = 1; call = inactive
ASPM (assembly factor for spindle microtubules): robust z-score, knock-down alone = 0.789; viability, DMSO vs non-targeting control = 1; call = inactive
MAP3K11 (mitogen-activated protein kinase kinase kinase 11): robust z-score, knock-down alone = 0.789; viability, DMSO vs non-targeting control = 1; call = inactive
NLK (nemo like kinase): robust z-score, knock-down alone = -1.93; viability, DMSO vs non-targeting control = 0.749; call = inactive
PRKD1 (protein kinase D1): robust z-score, knock-down alone = 0.789; viability, DMSO vs non-targeting control = 1; call = inactive
MAPK8 (mitogen-activated protein kinase 8): robust z-score, knock-down alone = 0.587; viability, DMSO vs non-targeting control = 0.981; call = inactive
CSNK2B (casein kinase 2 beta): robust z-score, knock-down alone = -0.499; viability, DMSO vs non-targeting control = 0.881; call = inactive
ULK3 (unc-51 like kinase 3): robust z-score, knock-down alone = 0.789; viability, DMSO vs non-targeting control = 1; call = inactive
AK7 (adenylate kinase 7): robust z-score, knock-down alone = -0.571; viability, DMSO vs non-targeting control = 0.874; call = inactive
